Taken from: PubChem BioAssay AID1508597 (Cure First, 2020)
The whole screen tested about 2,100 reagents; below is a part drawn at random. 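Calls flag viability under 80% in either arm, not effects specific to rucaparib; the reference for percent is not stated.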 Entries without a mark were called inactive. A reagent listed more than once was tested more than once; the source does not tell the runs apart. Reagent sequences are not shown. Not stated in the record: the 100% reference.

Test: 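Survival screen with siRNA in ovarian cancer cells derived from patients, with or without rucaparib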 (primary screen)
Cell system: human ovarian carcinoma lines grown from tumours: OCI-P5x (papillary serous) and OCI-C5x (clear cell)
Reagent: siRNA pool against human genes, 1.25 pmol siRNA per well
Time to read-out: 72 h or 96 h, depending on the cell culture
Conditions: rucaparib 20 µM (about IC30) or vehicle, present until read-out
Read-out: 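Luminescent ATP-based viability assay read 72 or 96 h after transfection, depending on culture, given as normalised percent viability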
Reading the numbers: viability, normalised: higher = more viable cells remaining
Hit rule: 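Active when normalised viability falls below 80 percent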
Meaning of the calls: active = viability under 80%; inactive = viability 80% or more

UBE2B (ubiquitin conjugating enzyme E2 B), rucaparib or vehicle Rucaparib, cell line OCI-C5x (clear cell), technical replicate 1 scored viability, normalised (%) = 78.2 (active).
UBE2B (ubiquitin conjugating enzyme E2 B), rucaparib or vehicle Rucaparib, cell line OCI-C5x (clear cell), technical replicate 1 gave viability, normalised (%) = 34.7 (active).
With UBE2B (ubiquitin conjugating enzyme E2 B), rucaparib or vehicle Rucaparib, cell line OCI-C5x (clear cell), technical replicate 2, the values are viability, normalised (%) = 58.8 (active).
UBE2B (ubiquitin conjugating enzyme E2 B), rucaparib or vehicle Rucaparib, cell line OCI-C5x (clear cell), technical replicate 2 gave viability, normalised (%) = 37.7 (active).
With UBE2B (ubiquitin conjugating enzyme E2 B), rucaparib or vehicle Rucaparib, cell line OCI-C5x (clear cell), technical replicate 3, the entry reads viability, normalised (%) = 47.1 (active).
UBE2B (ubiquitin conjugating enzyme E2 B), rucaparib or vehicle Rucaparib, cell line OCI-C5x (clear cell), technical replicate 3 scored viability, normalised (%) = 29.5 (active).
UBE2B (ubiquitin conjugating enzyme E2 B), rucaparib or vehicle Rucaparib, cell line OCI-P5x (serous), technical replicate 1 gave viability, normalised (%) = 66 (active).
With UBE2B (ubiquitin conjugating enzyme E2 B), rucaparib or vehicle Rucaparib, cell line OCI-P5x (serous), technical replicate 1, the entry reads viability, normalised (%) = 61.9 (active).
For UBE2B (ubiquitin conjugating enzyme E2 B), rucaparib or vehicle Rucaparib, cell line OCI-P5x (serous), technical replicate 2, the entry reads viability, normalised (%) = 78.1 (active).
With UBE2B (ubiquitin conjugating enzyme E2 B), rucaparib or vehicle Rucaparib, cell line OCI-P5x (serous), technical replicate 2 the deposit lists viability, normalised (%) = 51.7 (active).
For UBE2B (ubiquitin conjugating enzyme E2 B), rucaparib or vehicle Rucaparib, cell line OCI-P5x (serous), technical replicate 3 the deposit lists viability, normalised (%) = 83.3.
With UBE2B (ubiquitin conjugating enzyme E2 B), rucaparib or vehicle Rucaparib, cell line OCI-P5x (serous), technical replicate 3 the deposit lists viability, normalised (%) = 65.1 (active).
UBE2B (ubiquitin conjugating enzyme E2 B), rucaparib or vehicle Vehicle, cell line OCI-C5x (clear cell), technical replicate 1 gave viability, normalised (%) = 25.1 (active).
With UBE2B (ubiquitin conjugating enzyme E2 B), rucaparib or vehicle Vehicle, cell line OCI-C5x (clear cell), technical replicate 1, the entry reads viability, normalised (%) = 32.1 (active).
UBE2B (ubiquitin conjugating enzyme E2 B), rucaparib or vehicle Vehicle, cell line OCI-C5x (clear cell), technical replicate 2 gave viability, normalised (%) = 76.5 (active).
UBE2B (ubiquitin conjugating enzyme E2 B), rucaparib or vehicle Vehicle, cell line OCI-C5x (clear cell), technical replicate 2 gave viability, normalised (%) = 33.2 (active).
For UBE2B (ubiquitin conjugating enzyme E2 B), rucaparib or vehicle Vehicle, cell line OCI-C5x (clear cell), technical replicate 3, the values are viability, normalised (%) = 53.2 (active).
UBE2B (ubiquitin conjugating enzyme E2 B), rucaparib or vehicle Vehicle, cell line OCI-C5x (clear cell), technical replicate 3 scored viability, normalised (%) = 40.3 (active).
UBE2B (ubiquitin conjugating enzyme E2 B), rucaparib or vehicle Vehicle, cell line OCI-P5x (serous), technical replicate 1 gave viability, normalised (%) = 94.4.
UBE2B (ubiquitin conjugating enzyme E2 B), rucaparib or vehicle Vehicle, cell line OCI-P5x (serous), technical replicate 1 scored viability, normalised (%) = 68.5 (active).
With UBE2B (ubiquitin conjugating enzyme E2 B), rucaparib or vehicle Vehicle, cell line OCI-P5x (serous), technical replicate 2, the values are viability, normalised (%) = 85.8.
UBE2B (ubiquitin conjugating enzyme E2 B), rucaparib or vehicle Vehicle, cell line OCI-P5x (serous), technical replicate 2 scored viability, normalised (%) = 74.7 (active).
For UBE2B (ubiquitin conjugating enzyme E2 B), rucaparib or vehicle Vehicle, cell line OCI-P5x (serous), technical replicate 3 the deposit lists viability, normalised (%) = 73.7 (active).
With UBE2B (ubiquitin conjugating enzyme E2 B), rucaparib or vehicle Vehicle, cell line OCI-P5x (serous), technical replicate 3, the entry reads viability, normalised (%) = 107.
